Data from the supplement of paper PMC12595434, “Development of retinoid nuclear receptor pathway antagonists through targeting aldehyde dehydrogenase 1A3” (iScience, 2025).
The list shows a part of the results. The data scatter; read single values as rough.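 Tm was set to 64 °C where no melting was found, and many curves are irregular.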

Amino acid sequences for entries named in this document (tags omitted). A change or cut given only in a name is not applied to a line headed by its entry.
UniProt Q96EK5: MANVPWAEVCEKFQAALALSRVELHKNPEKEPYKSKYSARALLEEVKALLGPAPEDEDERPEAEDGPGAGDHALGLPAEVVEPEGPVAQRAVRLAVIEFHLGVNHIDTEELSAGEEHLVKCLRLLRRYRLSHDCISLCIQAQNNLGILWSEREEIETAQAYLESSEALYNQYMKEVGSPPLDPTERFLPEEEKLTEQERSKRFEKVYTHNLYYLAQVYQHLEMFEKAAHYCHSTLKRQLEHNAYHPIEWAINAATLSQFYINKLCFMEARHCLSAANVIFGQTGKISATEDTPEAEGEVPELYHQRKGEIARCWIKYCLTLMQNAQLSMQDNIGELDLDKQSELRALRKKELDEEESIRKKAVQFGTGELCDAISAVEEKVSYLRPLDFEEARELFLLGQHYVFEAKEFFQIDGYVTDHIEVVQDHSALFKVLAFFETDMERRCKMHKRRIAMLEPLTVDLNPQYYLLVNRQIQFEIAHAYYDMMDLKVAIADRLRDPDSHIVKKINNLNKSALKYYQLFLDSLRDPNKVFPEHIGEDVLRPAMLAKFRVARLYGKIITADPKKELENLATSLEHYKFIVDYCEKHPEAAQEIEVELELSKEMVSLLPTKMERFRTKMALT
UniProt Q96A29: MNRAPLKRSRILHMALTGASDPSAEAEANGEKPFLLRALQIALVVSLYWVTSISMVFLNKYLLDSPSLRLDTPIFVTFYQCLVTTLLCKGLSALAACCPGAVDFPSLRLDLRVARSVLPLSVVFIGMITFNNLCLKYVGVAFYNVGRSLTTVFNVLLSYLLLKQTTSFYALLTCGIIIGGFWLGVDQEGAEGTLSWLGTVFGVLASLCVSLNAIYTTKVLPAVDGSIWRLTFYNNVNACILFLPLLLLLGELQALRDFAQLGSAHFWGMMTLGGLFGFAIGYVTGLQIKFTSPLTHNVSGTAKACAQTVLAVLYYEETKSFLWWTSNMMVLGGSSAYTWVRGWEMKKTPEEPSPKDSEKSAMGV
UniProt Q92545: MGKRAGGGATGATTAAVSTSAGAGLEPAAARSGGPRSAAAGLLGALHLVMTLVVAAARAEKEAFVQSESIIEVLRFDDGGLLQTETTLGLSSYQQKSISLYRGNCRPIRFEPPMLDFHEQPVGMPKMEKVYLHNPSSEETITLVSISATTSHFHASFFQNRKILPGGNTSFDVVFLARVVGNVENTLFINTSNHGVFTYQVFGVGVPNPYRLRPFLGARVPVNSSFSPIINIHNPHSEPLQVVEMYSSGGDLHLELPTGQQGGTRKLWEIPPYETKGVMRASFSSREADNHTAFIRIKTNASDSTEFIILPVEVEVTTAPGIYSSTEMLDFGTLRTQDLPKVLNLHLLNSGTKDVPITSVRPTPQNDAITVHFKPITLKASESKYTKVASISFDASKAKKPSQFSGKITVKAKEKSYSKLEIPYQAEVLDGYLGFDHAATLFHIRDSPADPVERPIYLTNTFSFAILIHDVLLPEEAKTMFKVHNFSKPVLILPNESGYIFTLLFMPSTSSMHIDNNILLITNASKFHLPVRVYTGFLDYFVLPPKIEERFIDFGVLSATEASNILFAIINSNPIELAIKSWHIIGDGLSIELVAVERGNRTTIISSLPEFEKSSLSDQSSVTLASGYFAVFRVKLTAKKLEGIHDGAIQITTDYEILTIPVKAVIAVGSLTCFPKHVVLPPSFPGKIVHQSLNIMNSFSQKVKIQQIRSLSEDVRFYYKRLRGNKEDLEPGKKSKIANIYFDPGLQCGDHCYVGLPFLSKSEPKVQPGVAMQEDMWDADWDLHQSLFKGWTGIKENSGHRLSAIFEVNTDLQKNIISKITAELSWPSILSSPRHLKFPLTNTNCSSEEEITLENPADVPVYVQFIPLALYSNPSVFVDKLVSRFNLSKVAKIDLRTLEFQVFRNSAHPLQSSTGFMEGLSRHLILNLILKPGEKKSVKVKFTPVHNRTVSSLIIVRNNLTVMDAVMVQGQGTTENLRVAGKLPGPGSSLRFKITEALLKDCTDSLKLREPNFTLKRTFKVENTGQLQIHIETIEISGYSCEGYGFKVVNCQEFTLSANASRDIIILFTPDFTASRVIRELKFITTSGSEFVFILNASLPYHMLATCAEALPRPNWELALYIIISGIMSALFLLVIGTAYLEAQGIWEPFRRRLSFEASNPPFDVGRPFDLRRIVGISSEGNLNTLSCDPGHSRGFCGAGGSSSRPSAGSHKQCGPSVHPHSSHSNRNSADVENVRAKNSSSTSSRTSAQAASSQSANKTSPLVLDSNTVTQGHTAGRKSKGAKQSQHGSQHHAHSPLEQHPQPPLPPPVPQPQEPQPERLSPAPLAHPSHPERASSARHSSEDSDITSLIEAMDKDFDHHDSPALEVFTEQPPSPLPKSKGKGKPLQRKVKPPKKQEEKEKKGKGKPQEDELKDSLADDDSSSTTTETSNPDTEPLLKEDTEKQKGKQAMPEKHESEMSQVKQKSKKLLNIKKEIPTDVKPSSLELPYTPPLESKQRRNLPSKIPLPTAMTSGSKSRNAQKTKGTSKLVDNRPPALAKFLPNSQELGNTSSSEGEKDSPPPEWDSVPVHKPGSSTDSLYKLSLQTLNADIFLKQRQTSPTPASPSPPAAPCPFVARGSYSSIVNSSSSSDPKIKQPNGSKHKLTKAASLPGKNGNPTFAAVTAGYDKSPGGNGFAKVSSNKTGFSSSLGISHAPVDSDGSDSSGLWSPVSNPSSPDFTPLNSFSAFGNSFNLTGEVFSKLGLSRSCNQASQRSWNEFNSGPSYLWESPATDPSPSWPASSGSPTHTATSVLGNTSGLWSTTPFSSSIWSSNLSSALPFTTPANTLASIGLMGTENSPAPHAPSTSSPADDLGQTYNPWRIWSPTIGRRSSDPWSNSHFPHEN
UniProt Q96BM9: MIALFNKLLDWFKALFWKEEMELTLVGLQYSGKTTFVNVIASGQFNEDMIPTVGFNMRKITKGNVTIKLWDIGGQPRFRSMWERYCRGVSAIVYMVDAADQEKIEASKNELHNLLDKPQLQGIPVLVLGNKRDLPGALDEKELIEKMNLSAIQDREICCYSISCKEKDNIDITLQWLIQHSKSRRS
UniProt Q96E52: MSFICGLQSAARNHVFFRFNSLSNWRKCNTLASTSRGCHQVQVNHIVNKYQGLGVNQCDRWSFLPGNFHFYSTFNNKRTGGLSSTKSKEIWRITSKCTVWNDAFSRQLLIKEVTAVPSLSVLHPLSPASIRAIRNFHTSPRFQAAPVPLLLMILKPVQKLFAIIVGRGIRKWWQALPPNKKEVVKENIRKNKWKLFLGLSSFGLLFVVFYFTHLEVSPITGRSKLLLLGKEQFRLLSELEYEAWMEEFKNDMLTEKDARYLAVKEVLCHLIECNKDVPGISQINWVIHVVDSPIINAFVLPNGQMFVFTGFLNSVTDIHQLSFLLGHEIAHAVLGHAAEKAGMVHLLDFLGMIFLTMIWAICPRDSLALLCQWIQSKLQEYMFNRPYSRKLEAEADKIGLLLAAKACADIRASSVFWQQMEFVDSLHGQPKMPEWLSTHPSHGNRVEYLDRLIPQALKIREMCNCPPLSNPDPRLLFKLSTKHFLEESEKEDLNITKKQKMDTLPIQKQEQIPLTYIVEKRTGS
UniProt Q92598: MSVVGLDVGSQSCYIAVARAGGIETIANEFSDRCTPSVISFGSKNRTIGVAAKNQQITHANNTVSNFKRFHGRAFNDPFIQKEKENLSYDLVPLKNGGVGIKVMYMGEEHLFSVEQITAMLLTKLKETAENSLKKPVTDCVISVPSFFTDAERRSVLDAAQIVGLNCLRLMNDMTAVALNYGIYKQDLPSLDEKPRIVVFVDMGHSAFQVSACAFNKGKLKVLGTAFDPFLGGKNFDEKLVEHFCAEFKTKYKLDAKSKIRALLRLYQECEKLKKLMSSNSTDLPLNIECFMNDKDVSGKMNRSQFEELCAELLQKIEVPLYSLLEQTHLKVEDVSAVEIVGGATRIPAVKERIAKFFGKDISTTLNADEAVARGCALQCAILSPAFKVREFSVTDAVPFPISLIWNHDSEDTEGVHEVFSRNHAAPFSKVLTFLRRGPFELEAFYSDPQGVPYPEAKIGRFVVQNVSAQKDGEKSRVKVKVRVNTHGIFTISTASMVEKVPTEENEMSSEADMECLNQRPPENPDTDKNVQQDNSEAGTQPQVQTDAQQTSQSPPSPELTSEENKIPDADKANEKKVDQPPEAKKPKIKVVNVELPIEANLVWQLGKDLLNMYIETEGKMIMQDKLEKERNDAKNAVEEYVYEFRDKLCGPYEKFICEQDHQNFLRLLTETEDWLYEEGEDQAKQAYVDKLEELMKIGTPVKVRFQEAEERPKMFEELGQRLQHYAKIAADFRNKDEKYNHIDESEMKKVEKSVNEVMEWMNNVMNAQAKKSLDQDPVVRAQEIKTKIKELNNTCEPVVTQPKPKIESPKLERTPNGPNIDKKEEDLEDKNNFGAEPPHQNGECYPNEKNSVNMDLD
UniProt Q96A33: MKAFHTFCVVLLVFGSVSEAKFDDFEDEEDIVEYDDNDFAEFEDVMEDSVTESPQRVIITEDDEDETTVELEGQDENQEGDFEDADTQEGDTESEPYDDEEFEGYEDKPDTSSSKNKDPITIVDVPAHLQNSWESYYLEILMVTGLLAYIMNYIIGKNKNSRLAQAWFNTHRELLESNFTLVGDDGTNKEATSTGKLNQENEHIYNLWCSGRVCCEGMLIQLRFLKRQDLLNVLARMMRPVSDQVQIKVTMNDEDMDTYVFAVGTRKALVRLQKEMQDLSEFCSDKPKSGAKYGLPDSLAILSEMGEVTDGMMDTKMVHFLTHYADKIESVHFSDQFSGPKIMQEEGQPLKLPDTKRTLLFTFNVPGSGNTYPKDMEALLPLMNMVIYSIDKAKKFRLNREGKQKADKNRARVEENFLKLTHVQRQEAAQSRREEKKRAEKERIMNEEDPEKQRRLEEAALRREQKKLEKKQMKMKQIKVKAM
UniProt Q969E8: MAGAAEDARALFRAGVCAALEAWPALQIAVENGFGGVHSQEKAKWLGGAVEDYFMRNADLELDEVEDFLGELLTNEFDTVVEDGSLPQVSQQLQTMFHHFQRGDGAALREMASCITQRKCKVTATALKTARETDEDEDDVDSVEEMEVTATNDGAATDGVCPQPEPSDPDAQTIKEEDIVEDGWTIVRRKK
UniProt Q92556, whole entry: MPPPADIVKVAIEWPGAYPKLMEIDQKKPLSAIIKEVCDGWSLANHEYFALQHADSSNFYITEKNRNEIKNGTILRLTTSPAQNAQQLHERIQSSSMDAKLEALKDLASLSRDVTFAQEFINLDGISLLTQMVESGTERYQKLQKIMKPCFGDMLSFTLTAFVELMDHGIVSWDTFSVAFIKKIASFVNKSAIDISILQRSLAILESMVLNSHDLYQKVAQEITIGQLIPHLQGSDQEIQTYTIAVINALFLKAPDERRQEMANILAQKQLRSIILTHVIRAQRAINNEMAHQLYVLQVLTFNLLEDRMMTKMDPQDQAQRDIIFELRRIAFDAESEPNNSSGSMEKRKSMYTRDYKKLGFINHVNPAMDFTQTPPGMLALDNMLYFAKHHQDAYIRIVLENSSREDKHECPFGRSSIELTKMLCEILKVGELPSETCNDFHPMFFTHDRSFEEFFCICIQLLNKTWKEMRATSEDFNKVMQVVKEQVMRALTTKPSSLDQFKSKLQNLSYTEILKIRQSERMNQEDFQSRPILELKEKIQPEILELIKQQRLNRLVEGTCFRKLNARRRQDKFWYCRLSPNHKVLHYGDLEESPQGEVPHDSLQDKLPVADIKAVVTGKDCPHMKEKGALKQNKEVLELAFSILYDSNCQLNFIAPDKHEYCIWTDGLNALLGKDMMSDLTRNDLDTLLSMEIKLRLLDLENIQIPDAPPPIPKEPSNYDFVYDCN
UniProt Q8WWK9: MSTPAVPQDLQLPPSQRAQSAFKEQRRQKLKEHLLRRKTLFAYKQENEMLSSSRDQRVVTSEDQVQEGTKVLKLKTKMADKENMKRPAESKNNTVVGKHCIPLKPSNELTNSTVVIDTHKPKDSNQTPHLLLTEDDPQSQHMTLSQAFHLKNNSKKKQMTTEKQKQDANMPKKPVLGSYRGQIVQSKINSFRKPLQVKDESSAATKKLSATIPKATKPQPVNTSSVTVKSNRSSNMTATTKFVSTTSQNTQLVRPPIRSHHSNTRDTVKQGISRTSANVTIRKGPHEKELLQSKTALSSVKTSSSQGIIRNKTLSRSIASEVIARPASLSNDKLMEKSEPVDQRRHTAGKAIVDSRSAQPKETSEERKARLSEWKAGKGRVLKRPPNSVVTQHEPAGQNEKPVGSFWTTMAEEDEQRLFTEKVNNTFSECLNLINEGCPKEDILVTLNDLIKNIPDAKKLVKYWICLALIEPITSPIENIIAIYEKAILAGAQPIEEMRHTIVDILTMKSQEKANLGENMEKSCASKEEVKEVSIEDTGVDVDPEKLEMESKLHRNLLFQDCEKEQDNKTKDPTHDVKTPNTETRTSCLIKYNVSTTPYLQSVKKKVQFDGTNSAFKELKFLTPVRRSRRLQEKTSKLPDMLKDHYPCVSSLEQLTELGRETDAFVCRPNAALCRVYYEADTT

Compound: CCc1cnccc1C(=O)Nc1cc2c(cc1F)NC(=O)CC2
Experiment: melting temperature shift (DMSO Tm minus MBE1-treated Tm) in cellular thermal proteome profiling; higher = less thermal stabilization by MBE1 (negative = stabilized by MBE1)
Conditions: A375

Row | Target | melting temperature shift (MBE1 concentration: 100 nM) | melting temperature shift (MBE1 concentration: 1 uM)
1 | UniProt Q96AD5 | 1.77 °C | 1.12 °C
2 | UniProt Q96C92 | -4.23 °C | -6.55 °C
3 | GNPNAT1 (UniProt Q96EK6) | -0.922 °C | 1 °C
4 | ARPC1A (UniProt Q92747) | -0.71 °C | -0.253 °C
5 | LRRC59 (UniProt Q96AG4) | -2.83 °C | 0.769 °C
6 | KIF1BP (UniProt Q96EK5) | -0.875 °C | -0.538 °C
7 | ATRIP (UniProt Q8WXE1) | 0.672 °C | -0.122 °C
8 | EDEM1 (UniProt Q92611) | 0.657 °C | 0.41 °C
9 | GPKOW (UniProt Q92917) | -0.63 °C | -0.456 °C
10 | PHKB (UniProt Q93100) | 0.659 °C | 0.0244 °C
11 | CASKIN2 (UniProt Q8WXE0) | -1.17 °C | -0.615 °C
12 | HSD17B8 (UniProt Q92506) | 0.00671 °C | -4.77 °C
13 | UniProt Q969T7 | -0.729 °C | 1.13 °C
14 | FAM3C (UniProt Q92520) | -1.82 °C | -0.382 °C
15 | AP3S1 (UniProt Q92572) | 0.47 °C | 0.513 °C
16 | UniProt Q96D05 | -4.03 °C | -5.33 °C
17 | HDAC2 (UniProt Q92769) | -3.14 °C | -4.58 °C
18 | UniProt Q96A29 | 0.218 °C | 0.112 °C
19 | MYDGF (UniProt Q969H8) | -2.1 °C | -1.07 °C
20 | EXOC4 (UniProt Q96A65) | -0.781 °C | -0.729 °C
21 | MCUR1 (UniProt Q96AQ8) | -1.5 °C | 0.127 °C
22 | UniProt Q969V6 | -0.973 °C | 0.81 °C
23 | SREK1 (UniProt Q8WXA9) | 0.287 °C | -0.385 °C
24 | TBRG4 (UniProt Q969Z0) | -0.609 °C | -0.0577 °C
25 | NECTIN2 (UniProt Q92692) | -1.94 °C | -1.79 °C
26 | UniProt Q92481 | 0.122 °C | 0.446 °C
27 | TMEM131 (UniProt Q92545) | -0.562 °C | -0.928 °C

Shown with tabs: part of the list above.
Row	Target	melting temperature shift (MBE1 concentration: 100 nM)	melting temperature shift (MBE1 concentration: 1 uM)
3	GNPNAT1 (UniProt Q96EK6)	-0.922 °C	1 °C
4	ARPC1A (UniProt Q92747)	-0.71 °C	-0.253 °C
5	LRRC59 (UniProt Q96AG4)	-2.83 °C	0.769 °C
6	KIF1BP (UniProt Q96EK5)	-0.875 °C	-0.538 °C
7	ATRIP (UniProt Q8WXE1)	0.672 °C	-0.122 °C
8	EDEM1 (UniProt Q92611)	0.657 °C	0.41 °C
9	GPKOW (UniProt Q92917)	-0.63 °C	-0.456 °C
10	PHKB (UniProt Q93100)	0.659 °C	0.0244 °C
11	CASKIN2 (UniProt Q8WXE0)	-1.17 °C	-0.615 °C
12	HSD17B8 (UniProt Q92506)	0.00671 °C	-4.77 °C
13	UniProt Q969T7	-0.729 °C	1.13 °C
14	FAM3C (UniProt Q92520)	-1.82 °C	-0.382 °C
15	AP3S1 (UniProt Q92572)	0.47 °C	0.513 °C
16	UniProt Q96D05	-4.03 °C	-5.33 °C
17	HDAC2 (UniProt Q92769)	-3.14 °C	-4.58 °C
18	UniProt Q96A29	0.218 °C	0.112 °C
19	MYDGF (UniProt Q969H8)	-2.1 °C	-1.07 °C
20	EXOC4 (UniProt Q96A65)	-0.781 °C	-0.729 °C
21	MCUR1 (UniProt Q96AQ8)	-1.5 °C	0.127 °C
22	UniProt Q969V6	-0.973 °C	0.81 °C
23	SREK1 (UniProt Q8WXA9)	0.287 °C	-0.385 °C

(continued)

Row | Target | melting temperature shift (MBE1 concentration: 100 nM) | melting temperature shift (MBE1 concentration: 1 uM)
28 | IRGQ (UniProt Q8WZA9) | 0.232 °C | -0.0244 °C
29 | FOXRED1 (UniProt Q96CU9) | -0.516 °C | 0.14 °C
30 | PHF3 (UniProt Q92576) | -1.51 °C | 0.0733 °C
31 | CCDC127 (UniProt Q96BQ5) | 0.201 °C | 0.282 °C
32 | DHX38 (UniProt Q92620) | 0.055 °C | 0.818 °C
33 | UniProt Q8WYL5 | 0.214 °C | 0.055 °C
34 | PEX13 (UniProt Q92968) | -1.19 °C | -0.288 °C
35 | RUFY2 (UniProt Q8WXA3) | -0.677 °C | -0.513 °C
36 | TM9SF4 (UniProt Q92544) | 0.409 °C | 0.14 °C
37 | CTNNBL1 (UniProt Q8WYA6) | 0.0192 °C | 0.141 °C
38 | DDB2 (UniProt Q92466) | -1.48 °C | -1.67 °C
39 | UniProt Q8WW33 | -4.07 °C | -3.48 °C
40 | FAM120B (UniProt Q96EK7) | -0.775 °C | 0.409 °C
41 | ARL8A (UniProt Q96BM9) | -2.14 °C | 11.3 °C
42 | MED12 (UniProt Q93074) | -0.677 °C | -0.0941 °C
43 | NMD3 (UniProt Q96D46) | -0.785 °C | 0.852 °C
44 | MRPS31 (UniProt Q92665) | -0.971 °C | -0.421 °C
45 | SPDL1 (UniProt Q96EA4) | -0.218 °C | -0.442 °C
46 | NCLN (UniProt Q969V3) | -0.644 °C | 0.479 °C
47 | UniProt Q92766 | 1.61 °C | 1.83 °C
48 | UniProt Q92771 | -0.969 °C | -0.536 °C
49 | SMG7 (UniProt Q92540) | -0.325 °C | 0.169 °C
50 | ERCC4 (UniProt Q92889) | -0.936 °C | -1.3 °C
51 | GFM2 (UniProt Q969S9) | -0.775 °C | -0.858 °C
52 | ALG3 (UniProt Q92685) | 0.0738 °C | 0.686 °C
53 | MADD (UniProt Q8WXG6) | -0.0659 °C | -0.00941 °C
54 | UPRT (UniProt Q96BW1) | -0.161 °C | 0.543 °C

Row | Target | melting temperature shift (MBE1 concentration: 100 nM) | melting temperature shift (MBE1 concentration: 1 uM)
55 | P3H4 (UniProt Q92791) | -0.241 °C | -0.467 °C
56 | SEC14L1 (UniProt Q92503) | -4.79 °C | -2.98 °C
57 | ATXN2L (UniProt Q8WWM7) | -0.51 °C | -0.419 °C
58 | UniProt Q8WY21 | 0.324 °C | 1.39 °C
59 | UniProt Q92845 | -0.0753 °C | 0.0047 °C
60 | ZBTB10 (UniProt Q96DT7) | 0.55 °C | 0.0122 °C
61 | UniProt Q96E39 | 1.47 °C | 0.159 °C
62 | SIRT1 (UniProt Q96EB6) | 0.33 °C | -0.263 °C
63 | PRKCDBP (UniProt Q969G5) | -1.96 °C | 0.208 °C
64 | UniProt Q96BU1 | -5.61 °C | -7.66 °C
65 | MSI2 (UniProt Q96DH6) | 1.03 °C | 0.0977 °C
66 | SNRNP40 (UniProt Q96DI7) | -0.335 °C | 0.248 °C
67 | OMA1 (UniProt Q96E52) | -2.3 °C | -0.189 °C
68 | PIEZO1 (UniProt Q92508) | -0.179 °C | 1.92 °C
69 | WBP2 (UniProt Q969T9) | -0.858 °C | 0.382 °C
70 | ANP32B (UniProt Q92688) | -0.174 °C | 0.00671 °C
71 | GATAD2B (UniProt Q8WXI9) | -0.41 °C | -0.448 °C
72 | CUL5 (UniProt Q93034) | -0.543 °C | 0.287 °C
73 | CMBL (UniProt Q96DG6) | 0.597 °C | 0.174 °C
74 | PXDN (UniProt Q92626) | -2.88 °C | -3.14 °C
75 | UniProt Q96DP5 | 0.146 °C | 0.0282 °C
76 | UniProt Q96CG8 | -1.39 °C | -1.83 °C
77 | UniProt Q96B45 | -4.35 °C | -0.537 °C
78 | GEMIN6 (UniProt Q8WXD5) | -2.62 °C | -1.99 °C
79 | UniProt Q8WWX9 | 0.127 °C | 0.452 °C
80 | TCEAL4 (UniProt Q96EI5) | -8.06 °C | -7.53 °C
81 | PIBF1 (UniProt Q8WXW3) | -1.39 °C | -0.299 °C

Row | Target | melting temperature shift (MBE1 concentration: 100 nM) | melting temperature shift (MBE1 concentration: 1 uM)
82 | FKBP10 (UniProt Q96AY3) | -0.805 °C | 0.114 °C
83 | UniProt Q96AK3 | -1.63 °C | -0.0384 °C
84 | HSPH1 (UniProt Q92598) | 0.525 °C | -0.0733 °C
85 | RPUSD4 (UniProt Q96CM3) | -2.97 °C | 0.852 °C
86 | UniProt Q96DA2 | 1.25 °C | 1.87 °C
87 | AKAP1 (UniProt Q92667) | 0.58 °C | 0.0366 °C
88 | UniProt Q96AY2 | -8.82 °C | -1.75 °C
89 | RTF1 (UniProt Q92541) | 0.946 °C | 0.177 °C
90 | SPRYD4 (UniProt Q8WW59) | -0.838 °C | 0.127 °C
91 | CCDC47 (UniProt Q96A33) | -0.503 °C | 0.201 °C
92 | UniProt Q92828 | 0.824 °C | 0.519 °C
93 | UniProt Q92622 | 6.28 °C | 1.04 °C
94 | UniProt Q96D31 | -5.2 °C | -1.3 °C
95 | EXOSC8 (UniProt Q96B26) | -0.256 °C | -0.293 °C
96 | SMARCD2 (UniProt Q92925) | -0.275 °C | -0.0833 °C
97 | PTER (UniProt Q96BW5) | -2.41 °C | -2.2 °C
98 | TSR2 (UniProt Q969E8) | 0.409 °C | 0.702 °C
99 | FAM136A (UniProt Q96C01) | -3.9 °C | -0.171 °C
100 | UniProt Q92556 | 1.14 °C | 0.495 °C
101 | UniProt Q96BT7 | 0.438 °C | 0.328 °C
102 | CKAP2 (UniProt Q8WWK9) | -1.37 °C | -0.839 °C
103 | GLG1 (UniProt Q92896) | -2.55 °C | -2.8 °C
104 | TSC1 (UniProt Q92574) | -0.179 °C | -1.39 °C
105 | LPIN2 (UniProt Q92539) | 1.8 °C | 0.934 °C
